Data published in PubChem BioAssay (NCATS).
This list was built around the results that the source calls inconclusive (neither active nor inactive); the mix of calls is not that of the screen. Where the call is inconclusive, the potency comes from a doubtful curve fit. Active and inactive are the calls of the source. The call rests on the fitted dose curve; in most records, active means well fitted curve in the direction sought with a large enough effect; inconclusive means small, poorly fitted or top-dose-only effect, or another doubt; inactive means no such curve, though single readings can be large; an effect the other way counts as inactive or inconclusive.
On the % scale 0 is the no-effect control and ±100 the full control effect; potency means the concentration at half of the fitted maximal effect.

Test: qHTS Assay for Inhibitors of Fructose-1,6-bisphosphate Aldolase from Giardia Lamblia: Giardia lamblia growth inhibition (AID 2785); further: nearly all actives have a fitted effect of over 70% in size
Conditions: Giardia lamblia trophozoite growth inhibition; activity change, negative = inhibition: at 57.5 µM (top of the series)
Summary of the method: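 Whole-parasite growth test: Giardia WB trophozoites in TYI-S-33 (pH 7.0), 100 per well, incubated 48 h at 37C with compound. ATP content was read by ATPlite luminescence.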
With `CN(C)C(CNC(C(=O)Nc1ccc([N+](=O)[O-])cc1Br)c1ccccc1)c1ccccc1` (stereo not given) the activity change, negative = inhibition was inactive: -11.6% [at 10.4 µM]. For `CC(C)c1ccc(S(=O)(=O)/N=C2/C=C(Sc3ncn[nH]3)C(=O)c3ccccc32)cc1`, the Potency was active: 7.08 µM. For `Cc1nnc(SCC2=C(C(=O)O)N3C(=O)C(NC(=O)C(C)n4nc(C(F)(F)F)cc4C)C3SC2)s1` (stereo not given), the Potency was “inactive”. In the case of `Cc1ccc(OCCCN2CCOCC2)cc1`, the Potency is reported as inconclusive: 7.08 µM [inhibitor, single point]. For `Cc1nnc(N/N=C/c2ccc(-c3ccccc3F)o2)n1N`, the Potency was inconclusive: 39.8 µM [inhibitor, single point]. In the case of `O=S(=O)(c1ccc(F)cc1)N1CCN(CC(O)COc2ccccc2F)CC1` (stereo not given), the activity change, negative = inhibition is reported as inconclusive: 31.8% [activator]. With `O=C(N/N=C/c1ccccn1)c1cccc(S(=O)(=O)Nc2ccccc2Cl)c1` the Potency was inconclusive: 70.8 µM [inhibitor, single point]. For `CCN1CCC2(CC1)N=C(c1ccc(F)cc1)C(=S)N2`, the Potency was “inactive”. For `O=C1ON=C(c2ccccc2)/C1=C/c1ccc(O)c(O)c1`, the Potency was inconclusive: 50.1 µM [inhibitor, single point]. With `O=C(Nc1nnc(-c2ccco2)o1)c1ccc(N2C(=O)CCC2=O)cc1` the Potency was “inactive”. For `NN1C(=O)/C(=C2/Sc3ccccc3N2CCCS(=O)(=O)O)SC1=S`, the activity change, negative = inhibition was inactive: 13.6% [at 10.4 µM]. In the case of `CC(C)n1c(=O)[nH][nH]c1=S`, the activity change, negative = inhibition is reported as inactive: -4.44% [at 10.4 µM]. With `C1=CCC(CN2CCN(C3CCCCCC3)CC2)CC1` (stereo not given) the Potency was “inactive”. With `CCCC(C)c1nnc(NC(=O)c2cc(C(=O)OC)cc([N+](=O)[O-])c2)s1` (stereo not given) the Potency was inconclusive: 35.5 µM [inhibitor, single point]. With `c1ccc(C2=NNC(c3ccccn3)=NN2)nc1` the Potency was inconclusive: 70.8 µM [inhibitor, single point]. With `CCC1(C)Cc2c(C#N)c(N)sc(=S)c2CO1` (stereo not given) the activity change, negative = inhibition was inactive: 6.33% [at 10.4 µM]. With `O=C(Nc1nc(-c2ccccn2)cs1)c1cccc(-n2cnnn2)c1` the Potency was inconclusive: 31.6 µM [inhibitor, single point]. With `CCOc1cc(C=O)cc(N=Nc2cccc([N+](=O)[O-])c2)c1O` the Potency was inconclusive: 2 µM [inhibitor, partial curve, poor fit]. For `COc1ccc(OC)c(C2CC(=O)N3CN(c4cccc(Cl)c4C)CSC3=C2C#N)c1` (stereo not given), the Potency was inconclusive: 7.08 µM [inhibitor, single point]. In the case of `CCn1c(SCC(=O)c2ccc(O)c(O)c2)nnc1-c1ccccc1`, the Potency is reported as “inactive”. In the case of `Cn1cnc(Sc2ncnc3nc[nH]c23)c1[N+](=O)[O-]`, the Potency is reported as inconclusive: 35.5 µM [inhibitor, single point]. For `OC(COC(c1ccc(F)cc1)c1ccc(F)cc1)CN1CCCC(C(F)(F)F)C1` (stereo not given), the Potency was inconclusive: 5.01 µM [inhibitor, single point]. For `O=c1c(O)cccc2cc(O)c(O)c(O)c12`, the Potency was “inactive”. For `COc1cccc(/C=N/n2c(-c3cc(C)[nH]n3)n[nH]c2=S)c1O`, the Potency was inconclusive: 3.16 µM [inhibitor, partial curve, poor fit]. In the case of `CCOC(=O)C(C)Sc1nc(-c2ccccn2)ncc1OC` (stereo not given), the activity change, negative = inhibition is reported as inconclusive: -49.9% [inhibitor]. In the case of `O=C1/C(=C/c2ccco2)SC(=S)N1c1cccnc1`, the Potency is reported as inconclusive: 28.2 µM [inhibitor, single point]. In the case of `COC(=O)c1cc(C)nc2c1C(=O)C(=O)C=C2N1CCOCC1`, the Potency is reported as active: 25.1 µM. With `O=c1ccc2c(-c3ccccc3)c3ccc(O)cc3oc-2c1` the Potency was inconclusive: 11.2 µM [inhibitor, partial curve, poor fit]. In the case of `Cc1cc(=O)n2cccc(O)c2n1`, the Potency is reported as “inactive”. For `COC(=O)Oc1nsnc1N1CCOCC1`, the Potency was “inactive”. For `Cc1cc(C)n(CC(=O)NC2C(=O)N3C(C(=O)O)=C(CSc4nnc(C)s4)CSC23)n1` (stereo not given), the Potency was “inactive”. For `O=C(O)CNC(=O)CC1S/C(=N/N=C2/NC(=O)CS2)NC1=O` (stereo not given), the activity change, negative = inhibition was inconclusive: 34.5% [activator]. In the case of `CCOC(=O)CN1C(=O)/C(=C2\SC(=S)N(NC(=O)c3cccnc3)C2=O)c2ccccc21`, the Potency is reported as active: 6.31 µM. In the case of `COc1ccc(OC)c(CNc2ncc(-c3cccc([N+](=O)[O-])c3)n2C)c1`, the Potency is reported as inconclusive: 39.8 µM [inhibitor, single point].

Test: qHTS Assay for Inhibitors of Fructose-1,6-bisphosphate Aldolase from Giardia Lamblia: Mammalian cellular toxicity (AID 2786);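 further: compound exposure lasted 48 h before reading; nearly all actives have a fitted effect of over 60% in size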
Conditions: mammalian cell viability counter-screen; series mostly up to 57.5 µM
Summary of the method: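 Mammalian cytotoxicity surrogate: Chinese hamster ovary cells exposed to compound for 48 h at 37 °C. Cellular ATP then measured with ATPlite reagent, 20 min incubation.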
For `Cc1cc2cc(C(c3nnnn3CC3CCCO3)N3CCCc4ccccc43)c(=O)[nH]c2cc1C` (stereo not given), the Potency was “inactive”. In the case of `COc1cc(-c2nc(C(=O)NCC3CCCO3)cc3c2[nH]c2ccccc23)cc(OC)c1OC` (stereo not given), the Potency is reported as active: 39.8 µM. With `C=CCNC(=S)NN=C1CCC(c2ccccc2)CC1` (stereo not given) the Potency was inconclusive: 63.1 µM [inhibitor, partial curve]. In the case of `Oc1[nH]c2ccccc2c1N=NC(=S)N1CCOCC1`, the Potency is reported as active: 39.8 µM. In the case of `CCOc1ccccc1NC(=O)C(CC)Sc1nc2ccncc2[nH]1` (stereo not given), the Potency is reported as “inactive”. For `Cc1cc(NC(=O)c2sccc2C)n(-c2nc3ccccc3[nH]2)n1`, the Potency was inconclusive: 79.4 µM [inhibitor, single point].
